Results are given in words; binding and its absence hold for the method and conditions named. Some results given as binding are weak or reduced against the parent protein; the word gives no strength. Sequences can lack the tags named with a protein.
Molecular target: T1, BD-ECT1 (Arabidopsis) (UniProt Q3MK94)
T1 sequence: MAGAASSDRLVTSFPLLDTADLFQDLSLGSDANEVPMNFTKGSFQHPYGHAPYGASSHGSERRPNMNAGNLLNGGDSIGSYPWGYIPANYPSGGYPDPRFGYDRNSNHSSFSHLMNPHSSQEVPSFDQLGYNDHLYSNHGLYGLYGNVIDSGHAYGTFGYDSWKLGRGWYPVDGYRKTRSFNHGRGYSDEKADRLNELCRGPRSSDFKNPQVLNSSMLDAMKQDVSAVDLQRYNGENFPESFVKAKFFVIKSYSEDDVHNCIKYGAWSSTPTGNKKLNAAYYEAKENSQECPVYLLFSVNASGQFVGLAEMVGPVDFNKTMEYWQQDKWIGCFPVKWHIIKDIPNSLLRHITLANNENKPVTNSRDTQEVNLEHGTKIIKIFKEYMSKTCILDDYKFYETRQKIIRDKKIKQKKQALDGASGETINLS
Assay: two-hybrid

- binding: binds
B1: MBP-ECT1 (natural protein, Arabidopsis, UniProt Q3MK94 1-428, looked up)
chain: T1 sequence

Reference: article doi:10.1101/2024.07.24.604550 (bioRxiv, 2024)
